Binding data for four molecules are collected here from paper PMC4038944.

One assay has as its target T1, Myc–C-Nap1-CTD (UniProt Q9BV73).
T1 sequence: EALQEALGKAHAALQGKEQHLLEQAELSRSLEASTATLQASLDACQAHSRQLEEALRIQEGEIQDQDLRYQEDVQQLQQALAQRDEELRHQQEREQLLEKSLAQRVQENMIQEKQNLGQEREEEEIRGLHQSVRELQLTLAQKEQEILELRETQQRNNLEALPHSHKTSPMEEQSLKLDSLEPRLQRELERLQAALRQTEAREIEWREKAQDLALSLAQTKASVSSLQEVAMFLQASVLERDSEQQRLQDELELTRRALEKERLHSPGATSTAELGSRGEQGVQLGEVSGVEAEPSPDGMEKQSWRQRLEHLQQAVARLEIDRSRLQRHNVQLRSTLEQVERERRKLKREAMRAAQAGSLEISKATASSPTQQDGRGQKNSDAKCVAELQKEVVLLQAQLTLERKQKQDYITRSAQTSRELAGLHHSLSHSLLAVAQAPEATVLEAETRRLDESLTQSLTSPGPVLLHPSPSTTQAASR
Nature of the assay: co-IP; GFP-tagged protein coexpressed with Myc-tagged CTD constructs in U2OS cells for 24 hours; lysates immunoprecipitated with anti-Myc, blotted with anti-Myc and anti-GFP.

In another assay the target is Myc–C-Nap1-CTD-KR5E (UniProt Q9BV73). Nature of the assay: co-IP; HA-Cep135-CTD co-transfected with Myc-C-Nap1-CTD constructs into U2OS cells; lysates immunoprecipitated with anti-Myc (or anti-HA, panel A), blotted with anti-C-Nap1, anti-Myc or anti-HA.
For assay [1], the target named is Myc–C-Nap1-CTD-S10D (UniProt Q9BV73). The assay is described as above.
For a further assay, the target named is Myc–C-Nap1-CTD-S5D.1 (UniProt Q9BV73). Described as above.
The next assay addresses Myc–C-Nap1-CTD-S5D.2 (UniProt Q9BV73). Described as above.
The target of assay [2] is Myc–C-Nap1-CTD-S10D (UniProt Q9BV73). Kind of assay: co-IP; GFP-tagged protein coexpressed with Myc-tagged CTD constructs in U2OS cells for 24 hours; lysates immunoprecipitated with anti-Myc, blotted with anti-Myc and anti-GFP.
For assay [3], the target named is C-Nap1 CTD, LexA/VP16 two-hybrid fusion. Kind of assay: two-hybrid; LexA-DBD (pLEICS-81) and VP16-AD (pLEICS-82) fusions in S. cerevisiae L40; beta-galactosidase activity in Miller units.
The target of assay [4] is C-Nap1 CTD-S10D, LexA/VP16 two-hybrid fusion. The description is as above.

No constants are given. Whether binding was seen depends on the method and setting. For some assays here: A result given as binding can be weak or reduced; the word gives no strength. Sequences can lack the tags named with a protein. For some assays here: Binding seen in cells or lysates may run through a third protein.

Take GFP–C-Nap1-CTD (domain or fragment): the binding entry with Myc–C-Nap1-CTD was “binds”.

B1: HA–Cep135-CTD (648–1141) (domain or fragment, UniProt Q66GS9 648-1140)
chain: QAQKFSHVAGDSSHQKTEVNSLRIVNEQLQRSVDDYQHRLSIKRGELESAQAQIKILEEKIDELNLKMTSQDEEAHVMKKTIGVIDKEKDFLQETVDEKTEKIANLQENLANKEKAVAQMKIMISECESSVNQLKETLVNRDREINSLRRQLDAAHKELDEVGRSREIAFKENRRLQDDLATMARENQEISLELEAAVQEKEEMKSRVHKYITEVSRWESLMAAKEKENQDLLDRFQMLHNRAEDWEVKAHQAEGESSSVRLELLSIDTERRHLRERVELLEKEIQEHINAHHAYESQISSMAKAMSRLEEELRHQEDEKATVLNDLSSLRELCIKLDSGKDIMTQQLNSKNLEFERVVVELENVKSESDLLKKQLSNERHTVKNLESLLATNRDKEFHSHLTSHEKDTEIQLLKEKLTLSESKLTSQSRENTMLRAKVAQLQTDYDALKRQISTERYERERAIQEMRRHGLATPPLSSTLRSPSHSPEHRNV
As for B1, the binding result with Myc–C-Nap1-CTD-KR5E was “no binding”; in the assay with Myc–C-Nap1-CTD-S10D [1], “no binding”; with Myc–C-Nap1-CTD-S5D.1 it was “binds”; with Myc–C-Nap1-CTD-S5D.2 it was “binds”.

B2: GFP–Nek2A (enzyme, UniProt P51955 1-445)
chain: MPSRAEDYEVLYTIGTGSYGRCQKIRRKSDGKILVWKELDYGSMTEAEKQMLVSEVNLLRELKHPNIVRYYDRIIDRTNTTLYIVMEYCEGGDLASVITKGTKERQYLDEEFVLRVMTQLTLALKECHRRSDGGHTVLHRDLKPANVFLDGKQNVKLGDFGLARILNHDTSFAKTFVGTPYYMSPEQMNRMSYNEKSDIWSLGCLLYELCALMPPFTAFSQKELAGKIREGKFRRIPYRYSDELNEIITRMLNLKDYHRPSVEEILENPLIADLVADEQRRNLERRGRQLGEPEKSQDSSPVLSELKLKEIQLQERERALKAREERLEQKEQELCVRERLAEDKLARAENLLKNYSLLKERKFLSLASNPELLNLPSSVIKKKVHFSGESKENIMRSENSESQLTSKSKCKDLKKRLHAAQLRAQALSDIEKNYQLKSRQILGMR
In the case of B2, the binding entry with Myc–C-Nap1-CTD-S10D [2] was “binds”.

B3: Nek2, LexA/VP16 two-hybrid fusion (enzyme, UniProt P51955 1-445)
chain: MPSRAEDYEVLYTIGTGSYGRCQKIRRKSDGKILVWKELDYGSMTEAEKQMLVSEVNLLRELKHPNIVRYYDRIIDRTNTTLYIVMEYCEGGDLASVITKGTKERQYLDEEFVLRVMTQLTLALKECHRRSDGGHTVLHRDLKPANVFLDGKQNVKLGDFGLARILNHDTSFAKTFVGTPYYMSPEQMNRMSYNEKSDIWSLGCLLYELCALMPPFTAFSQKELAGKIREGKFRRIPYRYSDELNEIITRMLNLKDYHRPSVEEILENPLIADLVADEQRRNLERRGRQLGEPEKSQDSSPVLSELKLKEIQLQERERALKAREERLEQKEQELCVRERLAEDKLARAENLLKNYSLLKERKFLSLASNPELLNLPSSVIKKKVHFSGESKENIMRSENSESQLTSKSKCKDLKKRLHAAQLRAQALSDIEKNYQLKSRQILGMR
Regarding B3, the binding entry in assay [3] and in assay [4] was “binds” throughout.
